{
  "source": "paper PMC8421141",
  "key": {"[1]": {"tested_on": "IHF (integration host factor)", "assay": "AFM (clustering/bridging)", "details": "clusters from about 1 IHF:10-25 bp; AFM on poly-L-lysine surface; binding buffer; recombinant protein"}, "[2]": {"tested_on": "IHF (integration host factor)", "assay": "AFM (single-molecule imaging, bend angles)", "details": "1 IHF:5 bp, AFM on poly-L-lysine surface, binding buffer, recombinant protein"}, "[3]": {"tested_on": "IHF (integration host factor)", "assay": "AFM (aggregation/bridging)", "details": "1 IHF:7 bp, large aggregates; AFM on poly-L-lysine surface; binding buffer; recombinant protein"}},
  "note": "Construct, isoform or probe ends are uncertain for at least one entry. For some of these results: Weaker means in comparison with the reference protein, sequence or condition of that experiment.",
  "data": [
    {"sequence": "GATTGCGAGGCTTTGTGCTTCTCTGGAGTGCGACAGGTTTGATGACAAAAAATTAGCGCAAGAAGACAAAAATCACCTTGCGCTAATGCTCTGTTACAGGTCACTAATACCATCTAAGTAGTTGATTCATAGTGACTGCATATGTTGTGTTTTACAGTATTATGTAGTCTGTTTTTTATGCAAAATCTAATTTAATATATTGATATTTATATCATTTTACGTTTCTCGTTCAGCTTTTTTATACTAAGTTGGCATTATAAAAAAGCATTGCTTATCAATTTGTTGCAACGAACAGGTCACTATCAGTCAAAATAAAATCATTATTTGATTTCAATTTTGTCCCACTCCCTGCCTCTGTCATCACGATACTGTGATGCCATGGTGTCCGACTTATGCCCGAGAAGATGTTGAGCAAACTTATCGCTTATCTGCTTCTCATAGAGTCTTGCAGACAAACTGCGCAACTCGTGAAAGGTAG (double strand) [3λ478]", "values": [
      {"measurement": "binding result", "setting": "[1]", "value": "binds"}
    ]},
    {"sequence": "CAAGACACCGGATCTGCACAACATTGATAACGCCCAATCTTTTTGCTCAGACTCTAACTCATTGATACTCATTTATAAACTCCTTGCAATGTATGTCGTTTCAGCTAAACGGTATCAGCAATGTTTATGTAAAGAAACAGTAAGATAATACTCAACCCGATGTTTGAGTACGGTCATCATCTGACACTACAGACTCTGGCATCGCTGTGAAGACGACGCGAAATTCAGCATTTTCACAAGCGTTATCTTTTACAAAACCGATCTCACTCTCCTTTGATGCGAATGCCAGCGTCAGACATCATATGC (double strand) [1λ306]", "values": [
      {"measurement": "binding result", "setting": "[2]; bends 73, 107 and 147 deg", "value": "binds"}
    ]},
    {"sequence": "CTTTGTGCTTCTCTGGAGTGCGACAGGTTTGATGACAAAAAATTAGCGCAAGAAGACAAAAATCACCTTGCGCTAATGCTCTGTTACAGGTCACTAATACCATCTAAGTAGTTGATTCATAGTGACTGCATATGTTGTGTTTTACAGTATTATGTAGTCTGTTTTTTATGCAAAATCTAATTTAATATATTGATATTTATATCATTTTACGTTTCTCGTTCAGCTTTTTTATACTAAGTTGGCATTATAAAAAAGCATTGCTTATCAATTTGTTGCAACGAACAGGTCACTATCAGTCAAAATAAAATCATTATTTGATTTCAATTTTGTCCCACTCCCTGCC (double strand) [3λ343]", "values": [
      {"measurement": "binding result", "setting": "[3]", "value": "binds"}
    ]},
    {"sequence": "GCATCATCAAGTGCCGGTCGTGCAGCTTCCTCGGCAACGGCGGCAGAAAATTCTGCCAGGGCGGCAAAAACGTCCGAGACGAATGCCAGGTCATCTGAAACAGCAGCGGAACGGAGCGCCTCTGCCGCGGCAGACGCAAAAACAGCGGCGGCGGGGAGTGCGTCAACGGCATCCACGAAGGCGACAGAGGCTGCGGGAAGTGCGGTATCAGCATCGCAGAGCAAAAGTGCGGCAGAAGCGGCGGCAATACGTGCAAAAAATTCGGCAAAACGTGCAGAAGATATAGCTTCAGCTGTCGCGCTTGAGGATGCGGACACAACGAGAAAGGGGATAGTGCAGCTCAGCAGTGCAACCAACAGCA (double strand) [0λ361]", "values": [
      {"measurement": "binding result", "setting": "[2]; bends ~70 and ~110 deg, no 147 deg state", "value": "binds more weakly"}
    ]}
  ]
}
